Data reported in publication PMC5132261.
No constants are given. Whether binding was seen depends on the method and setting. In cells and extracts the contact can be indirect. Binding calls can cover weak binding; strength is not graded here. Sequences can lack the tags named with a protein.

B1: GFP-Bassoon3263-3938 (domain or fragment, UniProt O88778 3263-3938)
chain: DPGEPAVLEGPTLPCCYGRGEEESEEDSYDPRGKSGHHRSMESNGRPASTHYYSDSDYRHGARADKYGPGPMGPKHPSKNLAPAAISSKRSKHRKQGMEQKISKFSPIEEAKDVESDLASYPPPTVSSSLTSRSRKFQDEITYGLKKNVYEQQRYYGVSSRDTAEEDDRMYGGSSRSRVASAYSGEKLSSHDFSSRSKGYERERETAQRLQKAGPKPSSLSMAHGRARPPMRSQASEEESPVSPLGRPRPAGGALPPGDTCPQFCSSHSMPDVQEHVKDGPRAHAYKREEGYILDDSHCVVSDSEAYHLGQEETDWFDKPRDARSDRFRHHGGHTVSSSQKRGPARHSYHDYDEPPEEGLWPHDEGGPGRHTSAKEHRHHGDHGRHSGRHAGEEPGRRAARPHARDMGRHETRPHPQASPAPAMQKKGQPGYPSSADYSQPSRAPSAYHHASDSKKGSRQAHSGPTVLQPKPEAQAQPQMQGRQAVPGPQQSQPPSSRQTPSGTASRQPQTQQQQQQQQQQQQQQQQQQQQQQQQGLGQQAPQQAPSQARLQQQSQPTTRSTAPAASHPAGKPQPGPTTAPGPQPAGLPRAEQAGSSKPAAKAPQQGRAPQAQSAPGPAGAKTGARPGGTPGAPAGQPAAEGESVFSKILPGGAAEQAGKLTEAVSAFGKKFSSFW
B2: GFP-tagged C-terminal PBH9/10 region of Piccolo (amino acids 4077–4875) (domain or fragment, UniProt Q9JKS6 4077-4875)
chain: EFRRGTESLDHLAGLSHYYHADTSYRHFPKSEKYSISRLTLEKQAAKQLPAAILYQKQSKHKKSLIDPKMSKFSPIQESRDLEPDYPTYMSSGTSSIGGISSRARLLQDDITFGLRKNITDQQKFMGSSLGSGLGTLGNTIRSALQDEADKPYSSGSRSRPSSRPSSVYGLDLSIKRDSSSSSLRLKAQEAEALDVSFGHSSSSARTKPTSLPISQSRGRIPIVAQSSEEESPLSPVGQPMGMARAAAGPLPPISADTRDQFGSSHSLPEVQQHMREESRTRGYDRDIAFIMDDFQHAMSDSEAYHLRREETDWFDKPRESRLENGHGLDRKLPERLVHSRPLSQHQEQILQMNGKTIHYIFPHARVKITRDFKDHTGSGNGLGIRIVGGKEIPGHSGEIGAYIAKILPGESAEHTGPLMEGMQVLEWNGVPLTSKTYEEVQSIINQQSGEAEICVRLDLNMLSDSENPQHLELHEPPKVDKAKSPGVDPKQLAAELQKVSLQQSPLVMSSVVEKGSHAHSGPTSAGSSSVPSPGQPGSPSVSKKKHSSTKPTDGPKAASHPITGEIQLQINYDLGNLIIHILQARNLVPRDNNGYSDPFVKVYLLPGRGQVMVVQNASAEYKRRTKYVQKSLNPEWNQTVIYKSISMEQLMKKTLEVTVWDYDRFSSNDFLGEVLIDLSSTSHLDNTPRWYPLKEQTESIDHGKSHSSQNSQQSPKPSVIKSRSHGIFPDPSKDMQVPTIEKSHSSPGSSKSSSEGHLRSHGPSRSQSKTSVAQTHLEDAGVAIAAAEAAVQQLRIQP
B3: GFP-Bassoon2298-3238 (domain or fragment, UniProt O88778 2298-3238)
chain: GAREEPLSTTAPPAVIKEAPVAQAPAPPPGQKPAGDAAAGSGSGVLGRPVMEKEEASQEDRQRKQQEQLLQLERERVELEKLRQLRLQEELERERVELQRHREEEQLLVQRELQELQTIKHHVLQQQQEERQAQFALQREQLAQQRLQLEQIQQLQQQLQQQLEEQKQRQKAPFPATCEAPSRGPPPAATELAQNGQYWPPLTHTAFIAVAGTEGPGQAREPVLHRGLPSSASDMSLQTEEQWEAGRSGIKKRHSMPRLRDACEPESGPDPSTVRRIADSSVQTDDEEGEGRYLLTRRRRTRRSADCSVQTDDEDNAEWEQPVRRRRSRLSRHSDSGSDSKHEASASSSAAAAAARAMSSVGIQTISDCSVQTEPEQLPRVSPAIHITAATDPKVEIVRYISAPEKTGRGESLACQTEPDGQAQGVAGPQLIGPTAISPYLPGIQIVTPGALGRFEKKKPDPLEIGYQAHLPPESLSQLVSRQPPKSPQVLYSPVSPLSPHRLLDTSFASSERLNKAHVSPQKQFIADSTLRQQTLPRPMKTLQRSLSDPKPLSPTAEESAKERFSLYQHQGGLGSQVSALPPNGLVRKVKRTLPSPPPEEAHLPLAGQVPSQLYAASLLQRGLAGPTTVPATKASLLRELDRDLRLVEHESTKLRKKQAELDEEEKEIDAKLKYLELGITQRKESLAKDRVGRDYPPLRGLGEHRDYLSDSELNQLRLQGCTTPAGQYVDYPASAAVPATPSGPTAFQQPRFPPAATQYTAGSSGPTQNGFLAHQAPTYTGPSTYPAPTYPPGTSYPAEPGLPSQPAFHPTGHYAAPTPMPTTQSAPFPVQADSHAAHQKPRQTSLADLEQKVPTNYEVISSPAVTVSSTPSETGYSGPAVSSSYEHGKAPEHPRGGDRSSVSQSPAPTYPSDSHYTSLEQNVPRNYVMIDDISELTKDS

Each binder was assayed against Myc-Trio1-1203 (human) (assay: co-IP; co-transfected COS7 cells; lysis in 50 mM Tris pH 7.5, 150 mM NaCl, 1 mM EDTA, 1% Triton X-100; IP with rabbit anti-Myc antibody or rabbit IgG, protein A/G beads; washes in NETN-250 (250 mM NaCl, 0.5% NP-40); Western blot with anti-GFP).
With B1 the binding was “binds”.
In the case of B2, the binding is reported as “binds”.
In the case of B3, the binding is reported as “no binding”.
